According to patent publication US20090123463A1:
No constants are given. Whether binding was seen depends on the method and setting. Some results given as binding are weak or reduced against the parent protein; the word gives no strength.

Amino acid sequences for entries named in this document (tags omitted). Residues count along the entry.
UniProt Q05397, residues 693-1052: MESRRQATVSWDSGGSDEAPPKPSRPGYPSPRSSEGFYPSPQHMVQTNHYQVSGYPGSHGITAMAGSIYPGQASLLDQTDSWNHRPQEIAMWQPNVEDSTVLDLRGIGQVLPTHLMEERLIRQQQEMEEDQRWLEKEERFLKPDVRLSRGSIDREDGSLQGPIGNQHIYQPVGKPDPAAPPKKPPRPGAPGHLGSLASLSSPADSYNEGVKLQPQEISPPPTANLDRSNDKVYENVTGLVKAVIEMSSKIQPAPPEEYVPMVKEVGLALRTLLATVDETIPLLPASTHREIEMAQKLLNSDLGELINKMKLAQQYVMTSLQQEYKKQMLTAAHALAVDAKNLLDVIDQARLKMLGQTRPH

Key:
[1] = target: C-terminal domain of focal adhesion kinase (FAK-CD), baculoviral (human) (UniProt Q05397); assay: phage display
[2] = target: C-terminal domain of focal adhesion kinase (FAK-CD), baculoviral (human) (UniProt Q05397); assay: Western blots/phage overlays (FIG. 2)
[3] = target: C-terminal domain of focal adhesion kinase (FAK-CD), baculoviral (human) (UniProt Q05397); assay: phage display, baculoviral FAK-CD coated to a plate
[4] = target: C-terminal domain of focal adhesion kinase (FAK-CD), baculoviral (human) (UniProt Q05397); assay: phage display; Western blot and phage overlay (FIG. 2)

binding [1]: binds
binding [2]: binds
binding [3]: binds
binding [4]: binds
B1: Peptide-35 (…; SEQ ID NO: 1) (peptide)
peptide: WHWQWTPWSIQP
